From PMC10693550, “Programmable de novo designed coiled coil-mediated phase separation in mammalian cells” (Nature Communications, 2023)

Tested on: complementary peptide
Assay: Isothermal titration calorimetry (ITC) of orthogonal CC peptide pairs
Assay type: binding
Details: 50 mM Tris pH 7.5, 150 mM NaCl, 1 mM TCEP
Experimental: MicroCal PEAQ-ITC (Malvern) was used to measure the equilibrium dissociation constant (Kd) of orthogonal CC pairs. A 40-µl injection syringe was filled with the peptide solution (1 mM P5f, P13f; 5.6 mM S1h or 5.4 mM S3h) in 50 mM Tris pH of 7.5, 150 mM NaCl, and 1 mM TCEP. The samples were injected into an ITC cell (volume 200 µl) filled with a complementary peptide (100 µM P6f or P14f and 560 µM S2h or 540 µM S4h) in a matching buffer through a 19-step process. The injection volumes were 2 µl and were spaced 120 s apart, except for the first priming injection of 0.4 µl with 150 s spacing. Raw thermograms were integrated with the software NITPIC[83], interaction analysis was done with SEDPHAT[84], and titration curves were visualized with a companion GUSSI software. Monte Carlo simulation for non-linear regression, aligning the model function with experimental values 1000 times was used to obtain uncertainties in the fitted model.
Supplementary Figure 2: Binding analysis between the weak 3-heptad and strong 4-heptad CC forming segment using isothermal titration calorimetry (ITC). a) For peptide pair S1h + S2h peptide concentration in 40 µl injection syringe was 5.6 mM for S1h and concentration of complementary peptide S2h in ITC cell (volume 200 µl) was 560 […]
concentration in 40 µl injection syringe was 5.4 mM S3h and concentration of complementary peptide S4h in ITC cell (volume 200 µl) was 540 µM.
± 0.5 kcal/mol. For peptide pair c) P5f + P6f and d) P13f + P14f, which are 4-heptad CC.
Peptide concentration in 40 µl injection syringe was 1 mM for P5f and P13f and concentration […]
± 0.5 µM and ΔH -13.7 +- 0.6 kcal/mol and d) Kd 2.3 ± 0.2 µM and ΔH -14.7 ± 0.6 kcal/mol.
All the peptides were dissolved in a matching buffer 50 mM Tris pH of 7.5, 150 mM NaCl, […]
(1 picture or pasted object on this page, not shown here)

| Sequence | ΔH [kcal/mol] |
| --- | --- |
| EIAALEEENAALEQKIAALKE [S3h-S4h] | -11.1 ± 0.5 |
| KIAALKEEIAALEQKNAALKE [S1h-S2h] | -22.4 ± 1.4 |
| KIAALKEEIAALEQKNAALKEENAALEA [P13f-P14f] | -14.7 ± 0.6 |

No end group written: not given here.
